{"source": "patent US12178830B2", "about": "“Compositions and methods for adoptive cell therapy for cancer” (MEMORIAL SLOAN KETTERING CANCER CENTER, priority 2017, dated 2024)", "system": "SKOV-3 human ovarian cancer cell line", "experiment": "Cell viability, Skov-3", "assay_type": "cell-based", "details": "prodrug vs AMS", "note": "At least one structure is not confirmed: it was looked up by name or label, or the drawing left a doubt."}
{"smiles": "Nc1ncnc2c1ncn2[C@@H]1O[C@H](COS(=O)(=O)NCC2=C(C(=O)O)N3C(=O)[C@@H](NC(=O)Cc4cccs4)[C@H]3SC2)[C@@H](O)[C@H]1O", "note": "[ceph-AMS]", "values": [{"measurement": "Selective Index", "result": ".3.6"}]}
